29 targets from the supplement of paper PMC12819154, “High-throughput peptide-centric local stability assay extends protein–ligand identification to membrane proteins, tissues and bacteria” (Nature Structural & Molecular Biology, 2025) can be followed below.

Protein sequences, listed by entry. Tags and fused reporters are not part of them. Lines headed by an entry give the natural chain unless they say otherwise; changes in a name come on top.
UniProt Q8N141: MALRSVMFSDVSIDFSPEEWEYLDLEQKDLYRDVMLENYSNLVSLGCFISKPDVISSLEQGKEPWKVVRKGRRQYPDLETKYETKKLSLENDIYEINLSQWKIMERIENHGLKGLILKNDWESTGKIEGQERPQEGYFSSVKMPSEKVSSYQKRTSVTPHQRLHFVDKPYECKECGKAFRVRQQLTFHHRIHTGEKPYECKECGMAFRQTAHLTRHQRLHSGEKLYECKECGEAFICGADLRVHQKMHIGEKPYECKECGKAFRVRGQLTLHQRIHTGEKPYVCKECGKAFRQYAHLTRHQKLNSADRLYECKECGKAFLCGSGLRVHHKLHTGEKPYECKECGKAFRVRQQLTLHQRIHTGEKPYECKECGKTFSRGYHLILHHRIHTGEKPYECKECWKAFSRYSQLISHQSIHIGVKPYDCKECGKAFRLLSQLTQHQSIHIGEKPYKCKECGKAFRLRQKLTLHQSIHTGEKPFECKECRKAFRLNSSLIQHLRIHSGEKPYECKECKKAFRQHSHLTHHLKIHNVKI
UniProt Q86XN8: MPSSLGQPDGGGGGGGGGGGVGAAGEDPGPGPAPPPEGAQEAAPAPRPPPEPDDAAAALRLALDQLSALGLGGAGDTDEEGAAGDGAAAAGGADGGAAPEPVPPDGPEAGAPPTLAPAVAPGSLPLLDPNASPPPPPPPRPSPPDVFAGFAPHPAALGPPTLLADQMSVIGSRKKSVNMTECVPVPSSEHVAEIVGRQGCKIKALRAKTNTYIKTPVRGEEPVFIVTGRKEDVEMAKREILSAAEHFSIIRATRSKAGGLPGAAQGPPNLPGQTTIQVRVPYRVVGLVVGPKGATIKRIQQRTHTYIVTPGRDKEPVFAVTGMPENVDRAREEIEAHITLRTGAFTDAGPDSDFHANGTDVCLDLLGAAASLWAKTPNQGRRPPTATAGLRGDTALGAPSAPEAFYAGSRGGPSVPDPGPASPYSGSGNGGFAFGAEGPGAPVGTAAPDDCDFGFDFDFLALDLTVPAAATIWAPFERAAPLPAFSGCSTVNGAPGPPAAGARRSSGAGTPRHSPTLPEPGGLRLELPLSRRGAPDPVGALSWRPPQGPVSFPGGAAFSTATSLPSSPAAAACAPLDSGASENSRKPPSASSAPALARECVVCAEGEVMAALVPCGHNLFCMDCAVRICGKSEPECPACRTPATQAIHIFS
UniProt Q86Y79: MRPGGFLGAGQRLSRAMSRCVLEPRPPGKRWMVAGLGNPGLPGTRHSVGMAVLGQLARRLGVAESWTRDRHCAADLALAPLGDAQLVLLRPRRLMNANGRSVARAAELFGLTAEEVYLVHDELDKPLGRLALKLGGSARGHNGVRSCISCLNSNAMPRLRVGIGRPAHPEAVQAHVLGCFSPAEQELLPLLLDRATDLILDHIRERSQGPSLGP
UniProt Q86YI8: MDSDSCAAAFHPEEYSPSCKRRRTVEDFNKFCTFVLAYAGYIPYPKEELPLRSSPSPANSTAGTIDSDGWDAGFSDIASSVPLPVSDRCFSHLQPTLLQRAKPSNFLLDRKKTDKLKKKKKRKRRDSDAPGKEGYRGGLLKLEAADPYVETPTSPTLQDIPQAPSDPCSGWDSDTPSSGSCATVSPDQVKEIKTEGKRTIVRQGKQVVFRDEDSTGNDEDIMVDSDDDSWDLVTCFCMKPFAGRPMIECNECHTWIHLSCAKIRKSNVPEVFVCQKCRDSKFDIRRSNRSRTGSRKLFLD
UniProt Q86W11: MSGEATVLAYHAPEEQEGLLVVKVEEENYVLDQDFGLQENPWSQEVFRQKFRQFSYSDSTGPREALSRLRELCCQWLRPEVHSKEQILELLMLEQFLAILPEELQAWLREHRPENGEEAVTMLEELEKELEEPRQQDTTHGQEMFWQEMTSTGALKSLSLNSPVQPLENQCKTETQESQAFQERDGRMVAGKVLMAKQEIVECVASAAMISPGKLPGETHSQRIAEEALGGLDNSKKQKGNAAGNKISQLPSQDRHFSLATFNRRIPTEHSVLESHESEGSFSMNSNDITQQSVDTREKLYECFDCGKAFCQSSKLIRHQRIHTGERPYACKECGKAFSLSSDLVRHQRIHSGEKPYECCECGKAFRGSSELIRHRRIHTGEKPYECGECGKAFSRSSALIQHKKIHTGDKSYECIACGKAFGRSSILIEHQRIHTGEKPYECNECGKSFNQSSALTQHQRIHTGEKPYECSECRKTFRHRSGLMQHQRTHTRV
UniProt Q8IX15: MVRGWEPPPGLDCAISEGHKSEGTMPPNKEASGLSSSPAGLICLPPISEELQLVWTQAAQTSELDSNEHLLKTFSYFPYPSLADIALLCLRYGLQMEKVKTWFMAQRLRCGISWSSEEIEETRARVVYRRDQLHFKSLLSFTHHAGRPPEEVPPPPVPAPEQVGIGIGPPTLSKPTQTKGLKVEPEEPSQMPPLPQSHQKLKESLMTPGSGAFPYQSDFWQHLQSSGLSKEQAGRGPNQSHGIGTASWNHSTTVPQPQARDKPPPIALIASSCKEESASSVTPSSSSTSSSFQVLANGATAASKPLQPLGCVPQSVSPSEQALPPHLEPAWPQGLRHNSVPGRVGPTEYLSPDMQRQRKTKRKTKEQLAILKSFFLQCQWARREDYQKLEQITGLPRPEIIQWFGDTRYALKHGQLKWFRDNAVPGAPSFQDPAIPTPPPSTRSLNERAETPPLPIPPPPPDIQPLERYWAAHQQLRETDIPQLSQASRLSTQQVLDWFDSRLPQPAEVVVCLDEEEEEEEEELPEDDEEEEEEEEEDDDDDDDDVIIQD
UniProt Q8IZP2: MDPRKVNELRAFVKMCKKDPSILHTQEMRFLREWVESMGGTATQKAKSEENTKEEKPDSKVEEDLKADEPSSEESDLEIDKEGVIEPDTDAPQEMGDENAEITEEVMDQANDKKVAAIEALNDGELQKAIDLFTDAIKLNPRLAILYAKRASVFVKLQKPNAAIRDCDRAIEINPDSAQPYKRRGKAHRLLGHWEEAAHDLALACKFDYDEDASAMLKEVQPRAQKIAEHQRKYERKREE
UniProt Q86WH2: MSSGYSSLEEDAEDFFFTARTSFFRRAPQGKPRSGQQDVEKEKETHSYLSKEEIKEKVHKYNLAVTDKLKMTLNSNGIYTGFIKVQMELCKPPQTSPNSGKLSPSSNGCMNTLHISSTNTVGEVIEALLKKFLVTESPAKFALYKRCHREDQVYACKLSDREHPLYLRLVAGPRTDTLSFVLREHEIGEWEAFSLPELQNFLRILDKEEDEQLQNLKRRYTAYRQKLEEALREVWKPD
UniProt Q8IYB7: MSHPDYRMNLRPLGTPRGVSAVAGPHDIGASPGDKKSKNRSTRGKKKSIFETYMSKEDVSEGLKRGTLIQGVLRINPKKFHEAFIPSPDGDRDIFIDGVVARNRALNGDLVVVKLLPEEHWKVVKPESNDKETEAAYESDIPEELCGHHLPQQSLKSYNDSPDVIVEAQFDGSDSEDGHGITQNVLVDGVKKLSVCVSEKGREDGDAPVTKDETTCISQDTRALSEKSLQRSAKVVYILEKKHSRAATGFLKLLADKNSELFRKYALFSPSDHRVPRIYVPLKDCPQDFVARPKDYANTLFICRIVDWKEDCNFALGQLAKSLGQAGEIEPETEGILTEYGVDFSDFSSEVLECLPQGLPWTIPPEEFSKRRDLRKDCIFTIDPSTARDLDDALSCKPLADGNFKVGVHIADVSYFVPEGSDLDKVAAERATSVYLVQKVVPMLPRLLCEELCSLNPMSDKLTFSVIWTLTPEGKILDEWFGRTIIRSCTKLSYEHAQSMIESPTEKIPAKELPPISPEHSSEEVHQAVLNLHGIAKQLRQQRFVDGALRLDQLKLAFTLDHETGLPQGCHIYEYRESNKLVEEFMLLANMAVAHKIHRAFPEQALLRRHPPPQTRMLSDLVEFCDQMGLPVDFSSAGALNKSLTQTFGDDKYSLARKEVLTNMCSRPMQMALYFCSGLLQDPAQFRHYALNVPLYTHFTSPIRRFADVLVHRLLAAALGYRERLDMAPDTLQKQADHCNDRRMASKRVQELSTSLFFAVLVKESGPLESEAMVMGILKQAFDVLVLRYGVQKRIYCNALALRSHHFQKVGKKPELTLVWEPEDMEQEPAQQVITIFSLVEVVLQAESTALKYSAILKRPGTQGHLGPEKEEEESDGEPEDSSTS
UniProt Q86VI3: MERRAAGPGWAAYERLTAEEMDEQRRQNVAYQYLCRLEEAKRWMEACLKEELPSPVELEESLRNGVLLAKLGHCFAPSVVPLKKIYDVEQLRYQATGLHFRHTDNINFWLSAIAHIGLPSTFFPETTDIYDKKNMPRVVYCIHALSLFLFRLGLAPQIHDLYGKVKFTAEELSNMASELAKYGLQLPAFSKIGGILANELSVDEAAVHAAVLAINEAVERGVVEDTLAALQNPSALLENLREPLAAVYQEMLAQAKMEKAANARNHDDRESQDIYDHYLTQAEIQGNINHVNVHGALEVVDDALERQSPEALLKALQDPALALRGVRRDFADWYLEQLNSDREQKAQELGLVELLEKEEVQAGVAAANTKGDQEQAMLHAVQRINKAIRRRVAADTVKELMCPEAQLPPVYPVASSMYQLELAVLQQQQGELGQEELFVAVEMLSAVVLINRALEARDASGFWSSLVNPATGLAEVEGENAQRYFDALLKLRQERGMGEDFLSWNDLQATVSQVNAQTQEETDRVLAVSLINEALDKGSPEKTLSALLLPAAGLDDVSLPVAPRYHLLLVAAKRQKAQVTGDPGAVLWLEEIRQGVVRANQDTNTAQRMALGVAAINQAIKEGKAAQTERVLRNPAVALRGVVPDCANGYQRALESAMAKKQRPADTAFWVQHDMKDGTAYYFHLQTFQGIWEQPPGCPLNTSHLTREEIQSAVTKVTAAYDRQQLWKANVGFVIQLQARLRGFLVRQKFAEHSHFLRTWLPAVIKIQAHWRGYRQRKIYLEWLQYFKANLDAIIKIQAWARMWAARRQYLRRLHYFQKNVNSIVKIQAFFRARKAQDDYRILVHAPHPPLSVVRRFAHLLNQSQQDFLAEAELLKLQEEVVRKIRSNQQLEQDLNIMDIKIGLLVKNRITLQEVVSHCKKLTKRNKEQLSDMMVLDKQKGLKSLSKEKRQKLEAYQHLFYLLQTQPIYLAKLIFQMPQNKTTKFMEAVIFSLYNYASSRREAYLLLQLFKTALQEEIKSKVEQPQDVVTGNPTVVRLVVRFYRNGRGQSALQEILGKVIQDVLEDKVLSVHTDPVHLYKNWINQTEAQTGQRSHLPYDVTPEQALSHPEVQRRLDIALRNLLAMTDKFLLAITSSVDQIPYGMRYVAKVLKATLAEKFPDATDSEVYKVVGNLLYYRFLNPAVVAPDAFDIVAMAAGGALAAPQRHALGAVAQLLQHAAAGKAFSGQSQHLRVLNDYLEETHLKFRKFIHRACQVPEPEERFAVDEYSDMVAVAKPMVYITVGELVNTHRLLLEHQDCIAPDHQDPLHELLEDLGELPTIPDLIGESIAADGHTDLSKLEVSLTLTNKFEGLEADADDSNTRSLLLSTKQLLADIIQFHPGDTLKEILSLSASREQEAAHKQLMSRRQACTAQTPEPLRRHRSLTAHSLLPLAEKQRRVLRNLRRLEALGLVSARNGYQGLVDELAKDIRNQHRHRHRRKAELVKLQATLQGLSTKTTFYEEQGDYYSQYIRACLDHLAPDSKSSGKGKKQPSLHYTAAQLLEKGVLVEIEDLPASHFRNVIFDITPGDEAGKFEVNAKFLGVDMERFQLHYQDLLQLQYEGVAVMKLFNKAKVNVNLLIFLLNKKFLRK
UniProt Q86V21: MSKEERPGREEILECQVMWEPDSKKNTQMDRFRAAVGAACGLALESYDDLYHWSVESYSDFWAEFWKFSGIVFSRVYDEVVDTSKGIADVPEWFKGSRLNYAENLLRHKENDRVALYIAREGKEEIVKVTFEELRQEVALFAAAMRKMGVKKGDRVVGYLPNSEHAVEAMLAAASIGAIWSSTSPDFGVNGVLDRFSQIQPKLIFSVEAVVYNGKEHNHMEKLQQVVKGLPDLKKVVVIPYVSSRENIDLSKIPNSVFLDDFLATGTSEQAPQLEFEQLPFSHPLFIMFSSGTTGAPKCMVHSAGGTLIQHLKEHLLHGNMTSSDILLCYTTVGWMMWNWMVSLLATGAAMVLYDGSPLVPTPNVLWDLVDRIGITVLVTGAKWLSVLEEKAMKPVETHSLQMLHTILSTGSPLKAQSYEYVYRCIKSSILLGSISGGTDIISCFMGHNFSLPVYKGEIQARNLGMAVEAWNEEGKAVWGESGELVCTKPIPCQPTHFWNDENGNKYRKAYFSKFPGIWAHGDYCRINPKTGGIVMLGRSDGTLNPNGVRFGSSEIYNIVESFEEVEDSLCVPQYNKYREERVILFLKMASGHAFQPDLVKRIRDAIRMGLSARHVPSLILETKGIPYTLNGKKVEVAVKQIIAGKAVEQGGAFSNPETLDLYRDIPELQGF

This is one part of the list. Most values lie at the level of the controls, where differences are scatter.

Compound in the assay: Cc1nc(Nc2ncc(C(=O)Nc3c(C)cccc3Cl)s2)cc(N2CCN(CCO)CC2)n1 [dasatinib]
Description: log2 fold change of tryptic peptide abundance, ligand vs vehicle (limited proteolysis) (log2 ratio); higher = more trypsin-susceptible (destabilized). The settings on record: ligand concentration: 5 uM; sample: K562 cleared lysate.
Regarding “UniProt Q8N141 (peptide sequence: IEGQERPQEGYFSSVK, peptide start residue: 127)”, the log2 fold change was -0.212.

Consider “MEX3D (peptide sequence: TPATQAIHIFS, peptide start residue: 641) (UniProt Q86XN8)”, for which the log2 fold change is -0.439.

On to “AHI1 (peptide sequence: ETTSDDVSAANTNNLKK, peptide start residue: 76) (UniProt Q8N157)”, for which the log2 fold change came out at 0.43.

With “UniProt Q86YR5 (peptide sequence: KYQEGPDAER, peptide start residue: 454)”, the log2 fold change stood at 0.525.

In the case of “UniProt Q86YW9 (peptide sequence: KKPQVNAK, peptide start residue: 92)”, the log2 fold change is 0.00586.

In the case of “UniProt Q86VR2 (peptide sequence: VPRPDALDNESWGFVHPR, peptide start residue: 116)”, the log2 fold change was -0.0657.

“UniProt Q86V81 (peptide sequence: QYNGVPLDGR, peptide start residue: 165)”: the log2 fold change was -0.197.

With “ABI1 (peptide sequence: ALIESYQNLTR, peptide start residue: 18) (UniProt Q8IZP0)”, the log2 fold change worked out at 0.089.

Take “PTRH1 (peptide sequence: HSVGMAVLGQLAR, peptide start residue: 46) (UniProt Q86Y79)”: the log2 fold change is -0.00544.

Take “LONP2 (peptide sequence: EHILEDEK, peptide start residue: 602) (UniProt Q86WA8)”: the log2 fold change was 0.147.

As for “PHF13 (peptide sequence: AKPSNFLLDR, peptide start residue: 101) (UniProt Q86YI8)”, the log2 fold change is -0.305.

“UniProt Q86W11 (peptide sequence: ISQLPSQDR, peptide start residue: 247)”: the log2 fold change is 0.25.

Take “ARMC8 (peptide sequence: CLHSLSR, peptide start residue: 407) (UniProt Q8IUR7)”: the log2 fold change was -0.114.

Consider “HOMEZ (peptide sequence: TKEQLAILK, peptide start residue: 364) (UniProt Q8IX15)”, for which the log2 fold change amounted to 0.135.

Take “FMNL3 (peptide sequence: GLESVDSEALAR, peptide start residue: 477) (UniProt Q8IVF7)”: the log2 fold change was -0.222.

For “UniProt Q86V71 (peptide sequence: SFCMLSQLTQHKK, peptide start residue: 181)”, the log2 fold change amounted to 0.441.

Take “SCYL3 (peptide sequence: KDDVSPVMQFSSK, peptide start residue: 703) (UniProt Q8IZE3)”: the log2 fold change came to 0.251.

On to “ST13P4 (peptide sequence: SEENTKEEKPDSK, peptide start residue: 51) (UniProt Q8IZP2)”, for which the log2 fold change came to 0.136.

Regarding “RASSF3 (peptide sequence: SGQQDVEK, peptide start residue: 34) (UniProt Q86WH2)”, the log2 fold change is -0.432.

“FAM83A (peptide sequence: SVEGEIYCAK, peptide start residue: 222) (UniProt Q86UY5)”: the log2 fold change is -0.129.

Turning to “DIS3L2 (peptide sequence: QAFDVLVLR, peptide start residue: 780) (UniProt Q8IYB7)”, the log2 fold change is -0.682.

For “UBR1 (peptide sequence: NDEITHDKEKAER, peptide start residue: 1007) (UniProt Q8IWV7)”, the log2 fold change is -1.58.

As to “IQGAP3 (peptide sequence: ACQVPEPEER, peptide start residue: 1253) (UniProt Q86VI3)”, the log2 fold change was -0.558.

“ZC3H7A (peptide sequence: WMNIRPLPTKK, peptide start residue: 756) (UniProt Q8IWR0)”: the log2 fold change is -0.222.

Regarding “ANKHD1 (peptide sequence: VPTHTLAMVVPPQEPDR, peptide start residue: 718) (UniProt Q8IWZ3)”, the log2 fold change is 0.501.

With “KBTBD6 (peptide sequence: EACASFLAR, peptide start residue: 158) (UniProt Q86V97)”, the log2 fold change was 0.7.

With “AACS (peptide sequence: FSGIVFSR, peptide start residue: 68) (UniProt Q86V21)”, the log2 fold change was 0.525.

Turning to “UEVLD (peptide sequence: ITEGVSDTNSK, peptide start residue: 162) (UniProt Q8IX04)”, the log2 fold change was found to be 0.0762.

For the target “SLX4 (peptide sequence: SGLAVQAVTQHTPR, peptide start residue: 1280) (UniProt Q8IY92)”, the log2 fold change amounted to 0.224.
